The results in this text go back to article PMC10341401.

No constants are given. Whether binding was seen depends on the method and setting. Binding seen in cells or lysates may run through a third protein. Binding calls can cover weak binding; strength is not graded here.

This test deals with T1, ARL6IP5 (in the co-immunoprecipitation with Rab1) (UniProt O75915).
T1 sequence: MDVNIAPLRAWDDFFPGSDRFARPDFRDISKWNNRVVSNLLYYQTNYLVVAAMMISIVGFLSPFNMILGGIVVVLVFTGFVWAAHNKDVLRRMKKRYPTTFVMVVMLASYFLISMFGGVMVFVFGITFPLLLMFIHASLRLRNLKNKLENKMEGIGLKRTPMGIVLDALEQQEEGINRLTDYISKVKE
In words: co-IP; Rab1 and ARL6IP5 from cell lysate; protein-A agarose beads; which was precipitated and the ARL6IP5 expression condition are not told.

Turning to Rab1 (human (endogenous in SH-SY5Y)), the binding result was “binds”.
